Record: PubChem BioAssay AID652259 (Drosophila RNAi Screening Center, 2013)
The screen tested about 22,000 reagents; below is an unselected part of those with a known target gene and a result. In the full data, 233 (1.1%) are marked active. 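Light values are raw, unnormalised plate reads; the ratio scores behind the reporter calls were not deposited.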 Reagents against one gene are numbered here. The record does not give: the amount of reagent, the time to read-out, the dose of the treatment.

Assay: 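Knock-downs that push a Wingless-driven reporter up or down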 (primary screen)
Cells: Drosophila clone 8 imaginal disc epithelial cells
Reagent: long dsRNA against Drosophila genes
Challenge: pathway stimulated by co-transfected Wingless expression plasmid
Read-out: 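Firefly luciferase from a tcf-site Wingless reporter, measured alongside co-transfected Renilla luciferase that tracks transfection; pathway stimulated by a Wingless plasmid; the firefly-to-Renilla ratio is not deposited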
Scale: firefly reporter light: higher = more Wg reporter light, before normalisation; Renilla control light: higher = more transfected or surviving cells
Hit rule: 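Strong candidates differ from their plate mean by at least two out of four per-plate statistical tests; weak candidates meet just one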
Calls: active = candidate regulator (raises or lowers reporter); inactive = not a candidate

target gene	reagent	reporter change call, replicate 1	firefly reporter light, replicate 1	firefly reporter light, replicate 2	Renilla control light, replicate 1	Renilla control light, replicate 2	Outcome
S6KL	1		4764	9573	1812	4393	inactive
S6KL	2		8.09e5	8.61e5	3.48e5	3.42e5	inactive
boly	1		4.06e5	4.14e5	1.84e5	1.44e5	inactive
RpL10	1		9764		3049		inactive
Tango10	1		4373	10390	1728	4534	inactive
Mdh2	1		14371		2117		inactive
CG4546	1		11293		1413		inactive
Pax	1		20880		10792		inactive
Pax	2		18793		6621		inactive
Pax	3		3986	7958	1237	2913	inactive
CG10761	1		16848		8421		inactive
CG42699	1		1635	4065	756	1595	inactive
CG42699	2		21410		11666		inactive
Erasp	1		14183		4089		inactive
CG3631	1		8867		3993		inactive
CG1648	1		17866		5914		inactive
yip3	1		1837	5797	336	2183	inactive
PolH	1		9972		4699		inactive
CG4073	1		18385		4262		inactive
Vps51	1		21920		5395		inactive
beta'COP	1		5505		1976		inactive
CG11345	1		3809	10289	2184	4997	inactive
Shrm	1		4883		873		inactive
Shrm	2		6208		1302		inactive
Shrm	3		12774		3095		inactive
Rab19	1		1472	10373	1056	4125	inactive
msd1	1		3672		1832		inactive
mthl2	1		1621	6640	1429	3066	inactive
Ercc1	1		14487		3815		inactive
Dp	1	Wg reporter activity lowered	8725		4988		active
Hen1	1		11604		3077		inactive
Hen1	2		5104		2536		inactive
CG5225	1		16949		3261		inactive
Arp8	1		3096	8080	1195	2681	inactive
Argk2	1		1553	8342	1556	3524	inactive
CG1789	1		1665	6066	920	1955	inactive
Lrpprc2	1		3032	6612	925	2626	inactive
Efhc1.1	1		15074		6189		inactive
CG14100	1		13712		4964		inactive
CG6398	1		2064	7900	1024	3128	inactive
sc	1		20763		8320		inactive
hd	1		12739		4148		inactive
CG4459	1		21746		4822		inactive
l(1)10Bb	1		19092		6906		inactive
CG14304	1		20171		2485		inactive
Usp32	1		13725		4646		inactive
Neurochondrin	1		7744		2572		inactive
kni	1		14370		4633		inactive
CG33144	1		10395		2421		inactive
CG33144	2		4262	8624	1105	4547	inactive
